Experimental data taken from patent publication US20230062278A1, “COMPOUNDS FOR THE TREATMENT OF MYELOFIBROSIS” (ACTUATE THERAPEUTICS, INC., priority 2019, published 2023).
For at least one compound, name, drawing or mass did not settle the structure.

Test system: peripheral blood mononuclear cells from MF patients
Experiment: ex vivo colony assay in methylcellulose, primary cells from MF patients
Format: cell-based, human
Settings: MF cases 1 and 2; Ruxolitinib 0.05 µM; FIGS. 2B and 2D
Description: In order to study the effects of 9-ING-41 (alone and in combination with Ruxolitinib) on growth and proliferation in MF, ex vivo colony assays were conducted using primary cells from patients with previously untreated MF and normal bone marrow. The experiments were designed to assess the number, size, and morphology of stem/progenitor cells present in blood both with and without treatment.
Peripheral blood mononuclear cells from MF patients and bone marrow from healthy patients (control) were plated in methylcellulose in duplicate, containing cytokines, in the presence of either DMSO only, 9-ING-41 only, or a combination of 9-ING-41 and Ruxolitinib (0.05uM). Colonies were counted ten days later, and colony growth frequency, distribution, and morphology were calculated.

N#CC[C@H](C1CCCC1)n1cc(-c2ncnc3[nH]ccc23)cn1 [Ruxolitinib, reference compound]
morphology of the colonies: irregular and disorganized relative to normal bone marrow
